In article PMC10410754:
These are yes or no findings as the source states them, for the method shown. Binding seen in cells or lysates may run through a third protein. Some entries that bind do so weakly or less than the wild type.

By UniProt entry, the sequences of proteins in these tests, tags left out.
UniProt Q86VP3: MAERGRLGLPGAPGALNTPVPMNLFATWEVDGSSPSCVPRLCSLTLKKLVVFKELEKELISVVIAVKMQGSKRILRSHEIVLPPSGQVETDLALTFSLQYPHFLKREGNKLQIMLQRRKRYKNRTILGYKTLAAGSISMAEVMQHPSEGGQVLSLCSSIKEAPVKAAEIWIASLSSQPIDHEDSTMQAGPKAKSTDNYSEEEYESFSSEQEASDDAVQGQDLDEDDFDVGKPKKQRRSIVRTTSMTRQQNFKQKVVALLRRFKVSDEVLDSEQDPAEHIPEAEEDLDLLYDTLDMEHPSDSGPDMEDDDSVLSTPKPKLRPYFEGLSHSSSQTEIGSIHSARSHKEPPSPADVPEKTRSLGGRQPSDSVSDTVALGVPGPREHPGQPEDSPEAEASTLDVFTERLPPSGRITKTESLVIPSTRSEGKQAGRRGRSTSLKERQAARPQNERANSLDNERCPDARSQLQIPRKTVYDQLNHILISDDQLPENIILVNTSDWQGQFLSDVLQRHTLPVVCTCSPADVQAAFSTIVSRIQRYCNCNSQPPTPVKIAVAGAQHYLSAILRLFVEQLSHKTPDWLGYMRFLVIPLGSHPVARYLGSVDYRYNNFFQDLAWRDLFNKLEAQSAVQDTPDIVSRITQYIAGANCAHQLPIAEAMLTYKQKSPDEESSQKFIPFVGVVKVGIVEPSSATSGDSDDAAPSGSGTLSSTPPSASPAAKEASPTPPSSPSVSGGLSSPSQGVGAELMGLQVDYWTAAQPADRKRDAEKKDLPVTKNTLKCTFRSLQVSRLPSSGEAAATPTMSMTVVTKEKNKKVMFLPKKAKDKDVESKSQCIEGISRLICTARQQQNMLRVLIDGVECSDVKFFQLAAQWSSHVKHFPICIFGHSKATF
UniProt P68400: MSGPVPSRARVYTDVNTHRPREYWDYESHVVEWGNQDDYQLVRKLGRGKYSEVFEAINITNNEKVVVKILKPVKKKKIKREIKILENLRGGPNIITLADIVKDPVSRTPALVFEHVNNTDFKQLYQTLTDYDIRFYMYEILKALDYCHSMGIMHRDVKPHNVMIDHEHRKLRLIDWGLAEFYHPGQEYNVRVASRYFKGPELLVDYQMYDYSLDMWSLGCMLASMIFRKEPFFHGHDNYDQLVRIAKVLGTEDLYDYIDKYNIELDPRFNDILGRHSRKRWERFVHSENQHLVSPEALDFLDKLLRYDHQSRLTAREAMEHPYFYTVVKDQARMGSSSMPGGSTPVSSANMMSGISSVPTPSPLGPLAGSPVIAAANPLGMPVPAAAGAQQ

T1: polycystic kidney disease 2 (PKD2), in HEK293 cells (UniProt Q13563)
T1 sequence: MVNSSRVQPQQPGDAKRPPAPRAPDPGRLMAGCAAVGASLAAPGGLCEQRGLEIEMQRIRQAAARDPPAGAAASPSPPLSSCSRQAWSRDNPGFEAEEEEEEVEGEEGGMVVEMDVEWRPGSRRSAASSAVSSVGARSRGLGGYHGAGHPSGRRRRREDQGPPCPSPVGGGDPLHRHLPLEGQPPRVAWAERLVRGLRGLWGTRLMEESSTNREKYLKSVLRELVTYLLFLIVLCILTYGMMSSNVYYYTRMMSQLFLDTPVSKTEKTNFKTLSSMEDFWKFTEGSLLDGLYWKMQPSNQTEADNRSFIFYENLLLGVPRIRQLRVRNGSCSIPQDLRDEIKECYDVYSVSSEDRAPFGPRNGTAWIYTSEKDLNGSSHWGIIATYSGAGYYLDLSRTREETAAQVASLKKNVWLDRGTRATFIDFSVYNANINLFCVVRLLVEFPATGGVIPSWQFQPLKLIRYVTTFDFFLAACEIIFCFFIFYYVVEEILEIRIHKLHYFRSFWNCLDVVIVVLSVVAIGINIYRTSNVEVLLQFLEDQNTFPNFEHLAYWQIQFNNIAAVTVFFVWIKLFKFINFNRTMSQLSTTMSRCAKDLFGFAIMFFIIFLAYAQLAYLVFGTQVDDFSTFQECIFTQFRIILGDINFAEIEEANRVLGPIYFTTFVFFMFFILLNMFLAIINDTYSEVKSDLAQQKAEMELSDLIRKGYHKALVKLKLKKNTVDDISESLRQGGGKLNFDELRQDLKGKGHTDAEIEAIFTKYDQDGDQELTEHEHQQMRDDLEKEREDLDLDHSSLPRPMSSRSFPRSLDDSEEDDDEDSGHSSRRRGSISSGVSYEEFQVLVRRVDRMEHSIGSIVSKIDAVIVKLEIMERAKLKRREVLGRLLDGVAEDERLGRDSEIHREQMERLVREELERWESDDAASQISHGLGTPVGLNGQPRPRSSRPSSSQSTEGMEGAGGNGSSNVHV

B1: polycystic kidney disease 2 (PKD2), in HEK293 cells (protein, UniProt Q13563 1-968)
chain: T1 sequence
B2: endogenous PKD2 (SY5Y cells) (protein, UniProt Q13563 1-968)
chain: T1 sequence

Tests used:
[1] = target: T1, polycystic kidney disease 2 (PKD2), in HEK293 cells; experiment: co-IP; coimmunoprecipitation of CK2A1, PACS2 and PKD2 in HEK293 cells; baits and constructs only in SI Appendix
PACS2, in HEK293 cells = PACS2, in HEK293 cells (UniProt Q86VP3); experiment: as above
[2] = target: endogenous PACS2 (SY5Y cells) (human (endogenous in SY5Y)) (UniProt Q86VP3); experiment: co-IP; antibodies against PACS2; endogenous proteins in isolated ER-cytosol and MAM fractions of SY5Y cells; western blotting

| Molecule | binding [1] | binding (PACS2, in HEK293 cells) | binding [2] |
| --- | --- | --- | --- |
| casein kinase 2 alpha 1 (CK2A1), in HEK293 cells (from UniProt P68400 1-391) (enzyme) | binds | binds | – |
| endogenous CK2A1 (SY5Y cells) (from UniProt P68400 1-391) (enzyme) | – | – | binds |
| B1 | – | binds | – |
| B2 | – | – | binds |
